Results as given in PubChem BioAssay AID1259415 (National Center for Advancing Translational Sciences (NCATS), 2018).
“And” between values parts separate entries of the source, which are not always exact repeats. Identical values can stand only once. Among all 410,000 compounds or so, about 18,000 (4.4%) were called active. The shares of active, inactive and inconclusive entries below differ from those in the screen. Rule as the data show it: active = activity change below about -60%; inconclusive = no clear call, values can overlap the other calls; inactive = above about -39%.

Test: qHTS Assay for inhibitors of the human cytomegalovirus (HCMV)
Conditions: HFF cells, HCMV-luciferase reporter, 72 h; at 57.5 µM; active compounds read low
In short: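 HFF cells seeded 16 h at 37C, treated with compounds, infected with luciferase-reporter HCMV at MOI 1 PFU/cell; luciferase read at 72 h post infection, normalized to buffer-only and Salinomycin controls.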
% is scaled to controls: 0 for no effect and ±100 for the full control effect.

Which activity change, negative = inhibition does the source give for Cc1nnc(Nc2ccccn2)c2ccccc12 here?
The activity change, negative = inhibition was active: -60.2%.

With CCCc1cc(N2CCN(c3ccc(OC)cc3)CC2)n2cnnc2n1 as the compound, how does the activity change, negative = inhibition read?
Its activity change, negative = inhibition is active: -78.4%.

With CCCOc1cc(C)c(S(=O)(=O)NC2CC(C)(C)NC(C)(C)C2)cc1C as the compound, how does the activity change, negative = inhibition read?
Its activity change, negative = inhibition is inconclusive: -43.7%.

For Cc1[nH]c2ccccc2c1/C=C/c1nc2ccccc2c(=O)n1-c1cccc([N+](=O)[O-])c1, which activity change, negative = inhibition is on record?
Its activity change, negative = inhibition is active: -85.9%.

For CCOC1=C2[C@H](c3ccccc3)N(S(=O)(=O)c3ccc(C)cc3)C(C(C)(C)C)[C@H]2C(C#N)(C#N)C(C#N)(C#N)C1 (stereo not given in full), which activity change, negative = inhibition is on record?
The activity change, negative = inhibition was active: -100%.

For CC(NC(=O)CN1c2cccc3cccc(c23)S1(=O)=O)c1ccccc1 (stereo not given), which activity change, negative = inhibition is on record?
Its activity change, negative = inhibition is inactive: -10.2%.

With COc1ccc(-c2cc(C(=O)N3CCCc4ccccc43)no2)cc1 as the compound, how does the activity change, negative = inhibition read?
The activity change, negative = inhibition was inactive: 21.3%.

For CCOc1ccc(C2C(=O)N(C3CCCCCC3)CC(=O)N2CCc2ccc(Cl)cc2)cc1OC (stereo not given), which activity change, negative = inhibition is on record?
Its activity change, negative = inhibition is inconclusive: -59.6%.

With Brc1ccc(-n2cc(-c3ccccc3)c3c(NN4CCOCC4)ncnc32)cc1 as the compound, how does the activity change, negative = inhibition read?
Its activity change, negative = inhibition is inconclusive: -53.7%.

With CCCc1ccc(-c2ccc(/C=C/C(=O)O)cc2)nc1 as the compound, how does the activity change, negative = inhibition read?
Its activity change, negative = inhibition is inconclusive: -45.3%.

For CCN1c2ccccc2-c2nc(SCC(=O)Nc3cc(F)ccc3F)ncc2S1(=O)=O, which activity change, negative = inhibition is on record?
Its activity change, negative = inhibition is inconclusive: -45.3%.

With Fc1ccc(N2CCN(C(c3cccs3)c3nnnn3C3CCCC3)CC2)cc1 (stereo not given) as the compound, how does the activity change, negative = inhibition read?
Its activity change, negative = inhibition is inconclusive: -48.5%.

Which activity change, negative = inhibition does the source give for Cc1ccc(-c2nnc(Nc3cccc(Br)c3)c3ccccc23)cc1S(=O)(=O)NCC1CCCO1 (stereo not given) here?
The activity change, negative = inhibition was inconclusive: -41.6%.

For COc1ccc(C(CNC(=O)c2ccc(-c3nc4ccccc4s3)o2)N2CCCC2)cc1 (stereo not given), which activity change, negative = inhibition is on record?
The activity change, negative = inhibition was inconclusive: -47.7%.

Which activity change, negative = inhibition does the source give for COc1c(C=O)c(CCN(C)C(=O)c2ccc(F)cc2)cc2c1OCO2 here?
Its activity change, negative = inhibition is inconclusive: -51.6%.

For Cn1c(=O)n(C)c2cc(NS(=O)(=O)c3ccc(C(C)(C)C)cc3)c(NCc3ccccc3)cc21, which activity change, negative = inhibition is on record?
The activity change, negative = inhibition was inactive: -30%.

With Cc1ccc(C(=O)NCCN2CCN(C(=O)c3ccc(C)c(C)c3)CC2)cc1C as the compound, how does the activity change, negative = inhibition read?
Its activity change, negative = inhibition is inactive: -1.36%.

With O=C(Cn1cccn1)N1CCCC(N2CCN(c3ccccc3F)CC2)C1 (stereo not given) as the compound, how does the activity change, negative = inhibition read?
The activity change, negative = inhibition was inconclusive: -55.2%.

With Cc1ccc(NC(=O)Cn2cc(C(=O)C3CCCCC3)c3ccccc32)c(C)c1 as the compound, how does the activity change, negative = inhibition read?
The activity change, negative = inhibition was inactive: -6.13%.

For Cc1cc(C)cc(NC(=O)c2cc(C)n(Cc3cccs3)c2C)c1, which activity change, negative = inhibition is on record?
The activity change, negative = inhibition was inactive: 98.4%.

For Cc1ccc(S(=O)(=O)Nc2cccc(C(=O)NCC(c3ccco3)N3CCCC3)c2)cc1F (stereo not given), which activity change, negative = inhibition is on record?
Its activity change, negative = inhibition is inactive: -11.8%.

For O=S1(=O)CCN(Cc2ccc(Cl)c(Cl)c2)CC1, which activity change, negative = inhibition is on record?
Its activity change, negative = inhibition is inconclusive: -42.6%.

For COCCSc1nnc(NC(=O)CSc2ccccc2)s1, which activity change, negative = inhibition is on record?
Its activity change, negative = inhibition is inactive: 57%.

For COc1cc2c(cc1NC(=O)C(C)Sc1ccc(C)cc1)oc1ccccc12 (stereo not given), which activity change, negative = inhibition is on record?
The activity change, negative = inhibition was inconclusive: -47.5%.

With CCC(=O)Nc1cc(-c2nc3ccccc3s2)c(Cl)cc1Cl as the compound, how does the activity change, negative = inhibition read?
The activity change, negative = inhibition was active: -101%.

For CCc1cccc(C)c1NC(=O)C(CC)Sc1nncn2c1cc1occc12 (stereo not given), which activity change, negative = inhibition is on record?
Its activity change, negative = inhibition is inconclusive: -41.5%.

For Cc1ccc(NC(=O)/C(=C/C=C/c2ccccc2)NC(=O)c2ccccc2)cc1, which activity change, negative = inhibition is on record?
Its activity change, negative = inhibition is inactive: -36.5%.

With CC(C)CC(c1nnnn1C1CCCC1)N1CCN(C(=O)c2ccco2)CC1 (stereo not given) as the compound, how does the activity change, negative = inhibition read?
The activity change, negative = inhibition was inactive: -10.5%.

For CCCCNC(=O)c1nc2ncc(Br)cn2n1, which activity change, negative = inhibition is on record?
Its activity change, negative = inhibition is inactive: -27.8%.

Which activity change, negative = inhibition does the source give for CCc1ccc(NC(=O)c2cc(C)nn2-c2ccccc2)cc1 here?
Its activity change, negative = inhibition is inconclusive: -41.6% and inconclusive: -42.8%.

For Cc1ccccc1OCCNC(=O)c1ccccc1Sc1ccccc1C#N, which activity change, negative = inhibition is on record?
Its activity change, negative = inhibition is inconclusive: -44.4%.

Which activity change, negative = inhibition does the source give for COc1ccc(C2c3cc4c(cc3OC(N3CCOCC3)C2C)OCO4)c(OC)c1 (stereo not given) here?
The activity change, negative = inhibition was inconclusive: -50.1%.

Which activity change, negative = inhibition does the source give for CC(C)(C)Nc1c(-c2cccs2)nc2ccccn12 here?
The activity change, negative = inhibition was inconclusive: -41.6%.

With O=C(CCc1nnc(CCCCc2ccccc2)o1)NCCCc1cccnc1 as the compound, how does the activity change, negative = inhibition read?
Its activity change, negative = inhibition is inconclusive: -55.9%.

Which activity change, negative = inhibition does the source give for COc1ccc(/C(C)=N/NC(=O)CNC(=O)/C=C\c2ccccc2)c(OC)c1 here?
Its activity change, negative = inhibition is active: -85.9%.

With CC1(C(=O)NS(=O)(=O)Cc2ccccc2)CCN1C(=O)C1(c2ccc(Cl)cc2)CCC1 (stereo not given) as the compound, how does the activity change, negative = inhibition read?
The activity change, negative = inhibition was inconclusive: -46.7%.

With Cc1cccc(CN2C(=O)c3ccccc3Sc3ccc(C(=O)NCc4cccs4)cc32)c1 as the compound, how does the activity change, negative = inhibition read?
The activity change, negative = inhibition was inconclusive: -41.6%.

For COC(=O)c1ccc(NC(=O)CNS(=O)(=O)c2cccs2)cc1, which activity change, negative = inhibition is on record?
Its activity change, negative = inhibition is inactive: -12.5%.

Which activity change, negative = inhibition does the source give for CCCN(CC1CC1)C(=S)Nc1ccc(Oc2ccccc2)cc1 here?
Its activity change, negative = inhibition is inconclusive: -44.4%.

With O=C(N/N=C/c1ccc(Br)s1)c1ccco1 as the compound, how does the activity change, negative = inhibition read?
The activity change, negative = inhibition was inactive: 50.9%.

For COc1cccc(C=NNC(=S)NC2CC3CCC2C3)c1O (stereo not given), which activity change, negative = inhibition is on record?
Its activity change, negative = inhibition is inconclusive: -43.8%.

For Cc1c(C(=O)N/N=C/c2ccncc2)nnn1-c1nonc1N, which activity change, negative = inhibition is on record?
Its activity change, negative = inhibition is inconclusive: -43.1%.

Which activity change, negative = inhibition does the source give for Cc1ccc(Nc2nc(-c3c(C)nc4ccccn34)cs2)cc1 here?
Its activity change, negative = inhibition is active: -101%.

For CCOc1ccc(CNCc2ccccc2Cl)cc1, which activity change, negative = inhibition is on record?
The activity change, negative = inhibition was inconclusive: -46%.

For O=C(Nc1cccc([N+](=O)[O-])c1)Nc1ccc(Cl)cn1, which activity change, negative = inhibition is on record?
The activity change, negative = inhibition was inconclusive: -54.4%.

With C=CCOc1ccc2c(c1)C(=NO)c1cc(OCC=C)ccc1-2 as the compound, how does the activity change, negative = inhibition read?
Its activity change, negative = inhibition is inactive: -18.6%.

With FC(F)(F)c1ccc(C2[C@H]3CN(CC4CCCCC4)[C@H](c4ccccc4)C34CC2(c2cccnc2)C4)cc1 (stereo not given in full) as the compound, how does the activity change, negative = inhibition read?
The activity change, negative = inhibition was inactive: -20.5%.

Which activity change, negative = inhibition does the source give for Nc1ncnc2c1ncn2[C@@H]1O[C@H](C(=O)Nc2ccc(Oc3ccccc3)nc2)[C@@H](O)[C@H]1O here?
Its activity change, negative = inhibition is inactive: -10%.

With O=C(Nc1ccccc1C(F)(F)F)N1CCC2(CC1)Oc1ccccc1C(=O)N2Cc1ccccc1F as the compound, how does the activity change, negative = inhibition read?
The activity change, negative = inhibition was active: -73.6%.

With CC(=O)Nc1sc(N/N=C\c2ccccc2Cl)nc1-c1cccs1 as the compound, how does the activity change, negative = inhibition read?
The activity change, negative = inhibition was active: -83.4%.

For COc1cccc(CNC(=O)CCC2CCCN(Cc3cc4ccccc4o3)C2)c1 (stereo not given), which activity change, negative = inhibition is on record?
The activity change, negative = inhibition was inconclusive: -48.7%.

For Cc1ccc(C(=O)Nc2ccnc(-c3ccncc3)n2)cc1, which activity change, negative = inhibition is on record?
The activity change, negative = inhibition was inconclusive: -59.8%.

Which activity change, negative = inhibition does the source give for CC(C)N(Cc1nc2ccccc2c(=O)[nH]1)C(=O)c1ccc(NC(=O)CSc2nnnn2C)cc1 here?
The activity change, negative = inhibition was inactive: 3.66%.

With CC1Cc2ccccc2N1C(=O)CNc1ccccc1N1CCCCC1 (stereo not given) as the compound, how does the activity change, negative = inhibition read?
The activity change, negative = inhibition was inconclusive: -48.8%.

Which activity change, negative = inhibition does the source give for O=C(CNS(=O)(=O)c1cccc(C(F)(F)F)c1)NC1CCCCCC1 here?
Its activity change, negative = inhibition is inconclusive: -52%.
